This passage reports EC50 results from ChEMBL document CHEMBL1143626, “Morphiceptin analogues containing a dipeptide mimetic structure: an investigation on the bioactive topology at the mu-receptor” (J Med Chem, 2005).

This assay is filed under the species Cavia porcellus. The assay can be described thus: Inhibition of isolated guinea pig ileum contraction induced by electrical stimulation. Type of assay: functional. The method in brief:
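Electrical field stimulation was applied after 30-40 min equilibration: train 100 ms, pulse width 1 ms, pulse interval 10 ms, supramaximal 20 V. Compounds were added cumulatively at 3-fold steps (0.1 nM to 1 µM), with parallel runs in 10 nM naloxone. Isotonic tension was recorded as % of control […]. Efficacy is the maximal inhibition; EC50 is the half-maximal concentration. Mean ± SEM, 4-6 experiments.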

On to `CN1CC[C@]23c4c5ccc(O)c4O[C@H]2[C@@H](O)C=C[C@H]3[C@H]1C5` [MORPHINE], for which the EC50 stood at 127 nM.
